For this assay, the target named is N-terminally LAP-tagged CEP89 (Centrosomal Protein 89), full length (human) (UniProt Q96ST8). Nature of the assay: affinity purification with mass spectrometry; tandem affinity purification of N-terminally LAP-tagged CEP89 from confluent RPE-FRT9 cell lysate: GFP antibody beads, TEV cleavage, S-protein agarose; washes with 200 mM KCl, 50 mM HEPES-KOH pH 7.4, 0.05% NP-40; eluate analysed by silver staining and LC-MS/MS.

Protein sequences, listed by entry. Tags and fused reporters are not part of them.
UniProt Q96ST8: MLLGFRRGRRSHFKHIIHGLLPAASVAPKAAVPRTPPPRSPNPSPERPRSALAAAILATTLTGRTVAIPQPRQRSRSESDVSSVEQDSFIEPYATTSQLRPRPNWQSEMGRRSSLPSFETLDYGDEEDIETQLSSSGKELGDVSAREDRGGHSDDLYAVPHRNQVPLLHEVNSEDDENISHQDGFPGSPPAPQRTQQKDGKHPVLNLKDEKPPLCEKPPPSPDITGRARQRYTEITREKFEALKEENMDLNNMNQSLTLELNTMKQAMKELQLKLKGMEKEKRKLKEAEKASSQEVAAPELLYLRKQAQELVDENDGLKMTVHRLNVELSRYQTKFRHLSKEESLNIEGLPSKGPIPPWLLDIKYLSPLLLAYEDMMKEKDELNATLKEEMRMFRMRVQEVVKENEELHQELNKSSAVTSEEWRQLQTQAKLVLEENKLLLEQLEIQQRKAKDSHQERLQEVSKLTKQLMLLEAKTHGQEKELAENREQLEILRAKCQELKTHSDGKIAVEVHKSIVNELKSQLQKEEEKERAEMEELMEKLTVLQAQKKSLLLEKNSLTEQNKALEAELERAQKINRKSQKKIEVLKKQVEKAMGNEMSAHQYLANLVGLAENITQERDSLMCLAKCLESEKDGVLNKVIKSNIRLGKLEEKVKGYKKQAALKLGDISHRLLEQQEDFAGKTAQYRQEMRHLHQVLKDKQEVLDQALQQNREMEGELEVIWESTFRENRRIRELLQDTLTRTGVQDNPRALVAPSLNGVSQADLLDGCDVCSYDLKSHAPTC
UniProt Q9HBI5: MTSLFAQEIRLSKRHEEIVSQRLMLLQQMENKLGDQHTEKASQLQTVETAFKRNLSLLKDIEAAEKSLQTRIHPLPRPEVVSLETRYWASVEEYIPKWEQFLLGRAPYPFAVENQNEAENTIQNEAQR
UniProt A6NIH7: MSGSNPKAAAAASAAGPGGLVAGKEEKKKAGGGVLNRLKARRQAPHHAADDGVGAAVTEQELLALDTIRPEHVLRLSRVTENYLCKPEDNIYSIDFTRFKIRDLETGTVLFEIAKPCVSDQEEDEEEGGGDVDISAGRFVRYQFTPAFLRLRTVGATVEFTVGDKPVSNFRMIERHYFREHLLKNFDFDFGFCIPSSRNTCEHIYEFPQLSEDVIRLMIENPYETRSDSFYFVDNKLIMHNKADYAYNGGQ

No constants are given. Whether binding was seen depends on the method and setting. Binding seen in cells or lysates may run through a third protein. A yes stands for co-enrichment or nearness to the bait. Other partners may have been found. A no says only that the protein was not detected with the bait.

Take “CEP15, endogenous (from UniProt Q9HBI5 1-128)”: the binding entry was “binds”.

In the case of “UNC119B, endogenous (from UniProt A6NIH7 1-251)”, the binding result is recorded as “no binding”.

The record behind these values is paper PMC11984960.
